According to article PMC6926074:
Results are given in words; binding and its absence hold for the method and conditions named. In cells and extracts the contact can be indirect. Some results given as binding are weak or reduced against the parent protein; the word gives no strength. For part of these data: Where a sequence is shown, tags or fusion partners need not be part of it.

Amino acid sequences for entries named in this document (tags omitted).
UniProt P41279: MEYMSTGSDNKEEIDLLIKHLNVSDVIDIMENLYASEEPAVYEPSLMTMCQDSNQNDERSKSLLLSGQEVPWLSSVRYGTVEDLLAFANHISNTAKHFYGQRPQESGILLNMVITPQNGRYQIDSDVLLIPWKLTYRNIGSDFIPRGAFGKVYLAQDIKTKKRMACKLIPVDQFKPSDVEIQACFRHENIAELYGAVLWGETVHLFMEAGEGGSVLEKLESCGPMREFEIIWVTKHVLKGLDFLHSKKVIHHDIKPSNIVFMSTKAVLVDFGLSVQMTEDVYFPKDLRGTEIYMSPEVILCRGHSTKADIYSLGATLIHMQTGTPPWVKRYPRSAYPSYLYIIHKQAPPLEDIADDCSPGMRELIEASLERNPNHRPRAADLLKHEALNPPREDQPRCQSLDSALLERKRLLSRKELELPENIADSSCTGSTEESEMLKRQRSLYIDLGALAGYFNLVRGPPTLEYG
UniProt Q63562: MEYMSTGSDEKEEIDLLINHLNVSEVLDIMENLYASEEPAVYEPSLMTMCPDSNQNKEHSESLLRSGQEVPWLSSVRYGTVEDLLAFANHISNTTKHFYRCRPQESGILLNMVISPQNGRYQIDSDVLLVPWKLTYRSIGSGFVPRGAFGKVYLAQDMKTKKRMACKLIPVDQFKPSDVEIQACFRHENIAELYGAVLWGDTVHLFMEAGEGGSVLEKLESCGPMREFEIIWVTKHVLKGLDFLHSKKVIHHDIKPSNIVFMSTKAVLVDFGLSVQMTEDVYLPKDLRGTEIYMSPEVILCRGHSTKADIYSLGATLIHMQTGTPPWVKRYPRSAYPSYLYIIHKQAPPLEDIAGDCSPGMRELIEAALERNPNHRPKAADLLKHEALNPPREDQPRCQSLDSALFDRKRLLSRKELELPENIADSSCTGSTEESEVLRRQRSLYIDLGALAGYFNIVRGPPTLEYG

How the values were obtained:
[1] = biological target: T1, FLAG-BCL-3 (in Nfkb1-/- MEFs) (UniProt P20749); assay: co-IP; Nfkb1-/- MEFs transfected 24 h, pretreated with 20 uM MG132 for 2 h; FLAG-BCL-3 immunoprecipitated, immunoblot with anti-TPL-2 antibody
T1 sequence: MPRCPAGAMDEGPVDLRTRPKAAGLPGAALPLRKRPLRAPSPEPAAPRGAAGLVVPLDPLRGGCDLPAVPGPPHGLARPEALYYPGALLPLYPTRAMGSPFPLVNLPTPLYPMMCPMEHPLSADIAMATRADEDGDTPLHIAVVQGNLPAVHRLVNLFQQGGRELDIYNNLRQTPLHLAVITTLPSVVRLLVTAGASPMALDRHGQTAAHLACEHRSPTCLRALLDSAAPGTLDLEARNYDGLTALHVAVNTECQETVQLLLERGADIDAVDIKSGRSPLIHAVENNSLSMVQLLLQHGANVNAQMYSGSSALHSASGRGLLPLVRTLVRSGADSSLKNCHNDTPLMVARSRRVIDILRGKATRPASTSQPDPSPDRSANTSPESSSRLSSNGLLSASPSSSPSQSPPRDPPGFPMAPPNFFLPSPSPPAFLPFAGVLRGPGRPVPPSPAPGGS

FLAG-BCL-3 = biological target: T2, FLAG-BCL-3 (UniProt P20749); assay: co-IP; HEK293T cells transfected 24 h; FLAG-BCL-3 immunoprecipitated, immunoblot with anti-TPL-2 antibody
T2 sequence: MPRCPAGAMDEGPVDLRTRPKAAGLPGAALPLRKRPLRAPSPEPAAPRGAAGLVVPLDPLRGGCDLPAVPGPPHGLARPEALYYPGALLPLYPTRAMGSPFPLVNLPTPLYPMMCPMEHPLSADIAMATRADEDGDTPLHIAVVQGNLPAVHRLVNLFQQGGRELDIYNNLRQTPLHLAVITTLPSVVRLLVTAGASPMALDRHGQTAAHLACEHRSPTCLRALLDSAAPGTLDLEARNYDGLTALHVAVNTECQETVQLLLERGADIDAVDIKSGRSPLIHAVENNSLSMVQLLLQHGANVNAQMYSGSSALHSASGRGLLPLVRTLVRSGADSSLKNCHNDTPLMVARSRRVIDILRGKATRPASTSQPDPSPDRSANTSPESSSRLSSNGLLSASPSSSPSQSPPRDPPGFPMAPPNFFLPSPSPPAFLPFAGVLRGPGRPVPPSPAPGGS

[2] = biological target: endogenous TPL-2 (human (endogenous in THP-1)) (UniProt P41279); assay: co-IP; THP-1 lysates; endogenous TPL-2 immunoprecipitated, immunoblot with anti-BCL-3 antibody; immunizing TPL-2 peptide as specificity control

In the case of “TPL-2 (in Nfkb1-/- MEFs) (from UniProt Q63562 1-467) (enzyme)”, the binding [1] is reported as “binds”.

With “TPL-2 (from UniProt Q63562 1-467) (enzyme)” the binding (FLAG-BCL-3) was “binds”.

B1: endogenous BCL-3 (protein, UniProt P20749 1-454)
chain: MPRCPAGAMDEGPVDLRTRPKAAGLPGAALPLRKRPLRAPSPEPAAPRGAAGLVVPLDPLRGGCDLPAVPGPPHGLARPEALYYPGALLPLYPTRAMGSPFPLVNLPTPLYPMMCPMEHPLSADIAMATRADEDGDTPLHIAVVQGNLPAVHRLVNLFQQGGRELDIYNNLRQTPLHLAVITTLPSVVRLLVTAGASPMALDRHGQTAAHLACEHRSPTCLRALLDSAAPGTLDLEARNYDGLTALHVAVNTECQETVQLLLERGADIDAVDIKSGRSPLIHAVENNSLSMVQLLLQHGANVNAQMYSGSSALHSASGRGLLPLVRTLVRSGADSSLKNCHNDTPLMVARSRRVIDILRGKATRPASTSQPDPSPDRSANTSPESSSRLSSNGLLSASPSSSPSQSPPRDPPGFPMAPPNFFLPSPSPPAFLPFAGVLRGPGRPVPPSPAPGGS
For B1, the binding [2] was “binds”.
